No constants are given. Whether binding was seen depends on the method and setting. Where a sequence is shown, tags or fusion partners need not be part of it.
Molecular target: GST-NEU2 (recombinant cytosolic sialidase NEU2) (human) (UniProt Q9Y3R4)
Assay: pull-down; purified recombinant proteins mixed overnight at 4 °C (1.5 mg/mL each), precipitated with 20 μL Glutathione-Sepharose 4B for 1 h at 4 °C (GST or GST-tagged protein held), washed three times with PBS, western blotting; both purified

Amino acid sequences for entries named in this document (tags omitted).
UniProt Q9Y3R4: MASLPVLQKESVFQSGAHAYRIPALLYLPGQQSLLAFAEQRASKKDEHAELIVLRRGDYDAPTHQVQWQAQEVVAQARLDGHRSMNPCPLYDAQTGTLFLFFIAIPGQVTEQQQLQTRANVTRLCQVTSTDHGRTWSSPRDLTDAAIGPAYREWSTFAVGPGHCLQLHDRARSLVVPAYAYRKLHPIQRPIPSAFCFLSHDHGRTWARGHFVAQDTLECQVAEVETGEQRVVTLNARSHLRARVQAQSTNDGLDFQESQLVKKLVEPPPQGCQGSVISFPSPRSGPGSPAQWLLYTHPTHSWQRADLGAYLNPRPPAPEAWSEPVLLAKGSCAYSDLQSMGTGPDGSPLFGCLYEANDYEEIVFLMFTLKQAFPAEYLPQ

- binding: no binding
B1: (His)6-tagged yeast PNGase (enzyme, UniProt Q02890 1-363)
chain: MGEVYEKNNIDFDSIAKMLLIKYKDFILSKFKKAAPVENIRFQNLVHTNQFAQGVLGQSQHLCTVYDNPSWHSIVLETLDLDLIYKNVDKEFAKDGHAEGENIYTDYLVKELLRYFKQDFFKWCNKPDCNHCGQNTSENMTPLGSQGPNGEESKFNCGTVEIYKCNRCGNITRFPRYNDPIKLLETRKGRCGEWCNLFTLILKSFGLDVRYVWNREDHVWCEYFSNFLNRWVHVDSCEQSFDQPYIYSINWNKKMSYCIAFGKDGVVDVSKRYILQNELPRDQIKEEDLKFLCQFITKRLRYSLNDDEIYQLACRDEQEQIELIRGKTQETKSESVSAASKSSNRGRESGSADWKAQRGEDGK

Reference: paper PMC4598761
